Results on one compound are retold here after ChEMBL document CHEMBL1131230 (J Med Chem, 1998).

The structures appear in SMILES notation.

The target of the assay is GABA-A receptor; anion channel. Nature of the assay: Inhibition of [35S]TBPS binding to GABA-A receptor in rat cerebral cortex. Type of assay: tissue-based. The essentials: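 Unwashed cortical membranes from male Sprague-Dawley rats (180-200 g), homogenized in 50 mM Tris-citrate pH 7.4 with […], centrifuged at 20000g and resuspended in buffer. Final 1 nM [35S]TBPS with 0.20-0.25 mg protein and NaCl, 90 min at 25 °C, then GF/B filtration and scintillation counting. Nonspecific binding defined with 100 µM picrotoxin.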

For the compound `CC(=O)[C@H]1CC[C@H]2[C@@H]3CC[C@H]4C[C@H](O)CC[C@]4(C)[C@H]3C(=O)C[C@]12C` [ALFAXALONE], the half-maximal inhibitory concentration (IC50) was 300 nM.

The term IC50 denotes the concentration needed to halve the response being measured. A lower IC50 goes with higher potency.
